Experimental data published in patent US20260234270A1, “METHODS FOR TREATING CONDITIONS USING ANTI-NMDA RECEPTOR ANTIBODIES” (Lankenau Institute for Medical Research, priority 2022, published 2026).
No constants are given. Whether binding was seen depends on the method and setting. Some results given as binding are weak or reduced against the parent protein; the word gives no strength.

Assays:
[1] = molecular target: NMDAR GluN1 antigen in mouse retina (mouse) (UniProt P35438); assay: immunofluorescence imaging of mouse retina
[2] = molecular target: NMDAR GluN1 antigen in mouse retina (mouse) (UniProt P35438); assay: immunofluorescence of mouse retina, oxygen induced retinopathy model
[3] = molecular target: NMDAR GluN1 antigen in mouse retina (mouse) (UniProt P35438); assay: immunofluorescence of mouse retina, retinitis pigmentosa model

binding [1]	binding [2]	binding [3]	Binder
binds	binds	binds	2G6 chimeric recombinant antibody (antibody, V domains shown) VH: QVQLQESGGGVVQPGRSLRLSCAASGFSFNAFAMHWVRQAPGKGLEWVARISHYGSDDYYADSVKGRFTISRDNSQNTLFLQMNSLKAEDTGVYYCWRGFTLVRGVISRNPINRFSGMDVWGQGTTVTVSS VL: SYELMQPPSVSVSPGQTARITCSGDALPKKYAYWYQQKSGQAPILVIYEDNKRPSGIPERFSGSSSGTMATLTISGAQVEDEADYFCYSTDSSGNHGVFGGGTKLTVLG
binds	binds	binds	5F5 chimeric recombinant antibody (antibody, V domains shown) VH: QVQLVESGGGVVRPGGSLRLSCAASGFTFSTYSLHWVRQAPGKGLEWVGVILYDGSKKYYADSVRGRFTISRDNSKSTLNLDMSSLRPDDTAVYYCARDPIAVAPRPSGMVPQGFDYWGQGTLVTVSS VL: QSVVTQPPSASGTPGQRVTISCSGSSSNIGRNFVFWYRQLPGTAPKVLIYKNIQRPSGVPDRISGSRSGSSASLAISGLRSEDEADYYCASWDDSLSGVVFGGGTKLTVLG

Binder	binding [1]	binding [2]	binding [3]
1D1 chimeric recombinant antibody (antibody, V domains shown, not shown: a dimerising Fc or GST; small tags and cut ends; large carriers) VH: LVQLVESGGGVVQSGRSLRLSCAASGFAFHTFTIHWVRQAPGKGLDWVTAIYFDGTKKYYADSVKGRFTVSRDNSKNTVYLQMNGLRGEDTAVYYCARARYSYGLSFDYWGQGTPVTVSS VL: QSVVTQPPSVSAAPGQKVTISCSASSSYLGSNYVSWYQQLPGTAPKLLIYDNNKRSSGISDRFSGSKSGTSATLDITGLQTGDEADYYCGAWDSSLSVVVFGGGTKLTVL	binds	binds	
